Data: the supplement of paper PMC10849652
Some of the results follow.

Amino acid sequences for entries named in this document (tags omitted). A change or cut given only in a name is not applied to a line headed by its entry.
UniProt Q7L3B6: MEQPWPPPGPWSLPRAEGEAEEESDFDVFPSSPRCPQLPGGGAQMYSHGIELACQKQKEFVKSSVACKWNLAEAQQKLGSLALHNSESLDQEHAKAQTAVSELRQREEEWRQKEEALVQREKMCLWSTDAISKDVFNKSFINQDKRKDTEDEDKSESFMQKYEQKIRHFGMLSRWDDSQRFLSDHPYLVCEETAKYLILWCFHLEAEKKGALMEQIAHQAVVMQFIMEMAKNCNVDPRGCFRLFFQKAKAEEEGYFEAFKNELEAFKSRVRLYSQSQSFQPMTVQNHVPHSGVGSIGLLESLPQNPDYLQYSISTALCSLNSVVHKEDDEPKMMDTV
UniProt Q9ULG6: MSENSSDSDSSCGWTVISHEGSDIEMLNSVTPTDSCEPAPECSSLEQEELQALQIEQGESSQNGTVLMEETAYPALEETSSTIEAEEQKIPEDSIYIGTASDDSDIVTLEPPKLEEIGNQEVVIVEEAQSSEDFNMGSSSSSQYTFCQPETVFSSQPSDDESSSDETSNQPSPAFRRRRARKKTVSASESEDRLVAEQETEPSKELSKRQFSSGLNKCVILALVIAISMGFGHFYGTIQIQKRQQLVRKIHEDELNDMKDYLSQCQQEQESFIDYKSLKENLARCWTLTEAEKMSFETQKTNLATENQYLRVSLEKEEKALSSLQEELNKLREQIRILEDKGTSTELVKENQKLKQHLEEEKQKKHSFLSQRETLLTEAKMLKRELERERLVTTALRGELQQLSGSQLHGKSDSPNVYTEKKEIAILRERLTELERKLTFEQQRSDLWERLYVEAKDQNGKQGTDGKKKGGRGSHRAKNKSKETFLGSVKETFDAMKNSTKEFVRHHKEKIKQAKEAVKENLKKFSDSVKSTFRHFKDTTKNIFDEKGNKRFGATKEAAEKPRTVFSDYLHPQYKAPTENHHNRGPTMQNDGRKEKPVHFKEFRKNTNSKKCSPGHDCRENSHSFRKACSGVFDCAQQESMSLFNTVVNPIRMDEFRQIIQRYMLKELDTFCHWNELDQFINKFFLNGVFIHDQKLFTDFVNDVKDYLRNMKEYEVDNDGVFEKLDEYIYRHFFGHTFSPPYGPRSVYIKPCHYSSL
UniProt Q86WR0: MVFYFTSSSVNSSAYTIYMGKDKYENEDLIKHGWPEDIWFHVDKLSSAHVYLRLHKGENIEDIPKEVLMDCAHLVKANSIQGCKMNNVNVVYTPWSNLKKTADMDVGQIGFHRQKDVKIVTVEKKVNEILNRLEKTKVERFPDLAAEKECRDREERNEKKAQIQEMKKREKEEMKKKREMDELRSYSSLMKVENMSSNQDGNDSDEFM

Legend:
Experiment in all cases: log2 fold change, soluble protein after heating vs DMSO (PISA); higher = thermal stabilisation; K562 cells, 10 uM, 30 min; active = over 0.2 and 3.5 SD of the protein, either way, in both replicates (recomputed)
[1] = compound: C1=CC=C(C=C1)[C@H](COC2=CC3=C(C=C2)NC(=O)N3)NC(=O)C4=CC=CN(C4=O)CC5=CC(=C(C=C5)F)F
Summary of the method: (§1)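 Aliquots of K562 cells (2×10^6 cells/mL) treated with 10 μM compound for 30 min were heated for 3 min over 48°C-58°C. After pooling and extraction in PBS with 0.5% NP-40 at 4°C, soluble protein from a 21,000xg, 90 min spin was quantified by TMTpro 16plex LC-MS/MS with channel sums equalised. Thermal stability is expressed against control samples, from duplicates, as a log2 fold change.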

[2] = compound: CC1=C(SC2=C1C(=N[C@H](C3=NN=C(N32)C)CC(=O)N)C4=CC=C(C=C4)Cl)C
Summary of the method: as §1

[3] = compound: CC1=C2C(=CC=C1)N=C(N(C2=O)C3=CC=CC=C3C)CN4C=NC5=C(N=CN=C54)N
Summary of the method: as §1

[4] = compound: Cc1sc2c(c1C)C(c1ccc(Cl)cc1)=N[C@@H](CC(=O)OC(C)(C)C)c1nnc(C)n1-2
Summary of the method: as §1

[5] = compound: c1ccc([C@@H]2C[C@H]2NC2CCNCC2)cc1
Summary of the method: as §1

Measured: log2 fold change

CDC37L1 (UniProt Q7L3B6)
inactive: [1] -0.009 | [2] 0.026 | [3] 0.087 | [4] 0.337 | [5] 0.02

CCPG1 isoform 5 (UniProt Q9ULG6)
inactive: [1] 0.073 | [2] -0.11 | [3] -0.081 | [4] -0.024 | [5] -0.01

CCDC25 (UniProt Q86WR0)
inactive: [1] -0.094 | [2] 0.032 | [3] 0.098 | [4] 0.01 | [5] -0.012
